HELM strings list residues between dots; [ac] is acetyl, [am] amide, other brackets name non-standard units.
Assay: general procedure: solution-phase peptide synthesis; DCCI/HOBT; ONp active esters
Conditions: HCl

Substance | step yield (late stage modification step) [%] | final HPLC purity (late stage modification step) [%] | step yield (coupling step) [%]
Ac--Ile--Glu-Glycolyl-Arg--pNA.HCl | 31 | 98 | 
PEPTIDE1{[ac].I.E.G.K.[pNA]}$$$$V2.0 | 42 | 98 | 
α-Boc-Ile-γ-O-Bzl-Glu-Gly-ε-Z-Lys-pNA |  |  | 61
α-Ac-Ile-O-Bzl-Thr-Gly-ε-Z-Lys-pNA | 86 |  | 
α-Boc-Ile-γ-O-Bzl-Glu-Glyc-Arg-pNA.HCl |  |  | 69
α-Ac-Ile-O-Bzl-Ser-Gly-ε-Z-Lys-pNA | 85 |  | 
α-Boc-Ile-O-Bzl-Thr-Gly-ε-Z-Lys-pNA |  |  | 50
α-Ac-Ile-γ-O-Bzl-Glu-Gly-Z-Lys-pNA | 86 |  | 
α-Boc-Ile-O-Bzl-Ser-Gly-ε-Z-Lys-pNA |  |  | 72
α-Ac-Ile-γ-O-Bzl-Glu-Glyc-Arg-pNA.HCl | 94 |  | 
PEPTIDE1{[ac].I.S.G.K.[pNA]}$$$$V2.0 | 35 | 97 | 
α-Ac-Ile-Thr-Gly-Lys-pNA.HCl | 36 | 97 | 

From patent publication US5334703A (Chromonogenix AB, priority 1989, dated 1994)
